From US20220089776A1 (OREGON HEALTH AND SCIENCE UNIVERSITY, published 2022)
No constants are given. Whether binding was seen depends on the method and setting. For some assays here: Binding calls can cover weak binding; strength is not graded here.

Columns and labels:
[1] = target: African green monkey FXII (African green monkey); experiment: Western blot of platelet-poor plasma
baboon FXII (baboon) [2] = experiment: Western blot of platelet-poor plasma
beagle FXII (beagle) [3] = experiment: Western blot of platelet-poor plasma, non-reduced SDS-PAGE
cat FXII (cat) [4] = experiment: as above
chicken FXII (chicken) [5] = experiment: as above
dog FXII (dog) [6] = experiment: as above
elephant FXII (elephant) [7] = experiment: as above
[8] = target: giant anteater FXII (giant anteater); experiment: as above
horse FXII (horse) [9] = experiment: as above
llama FXII (llama) [10] = experiment: as above
marmoset FXII (marmoset) [11] = experiment: as above
raccoon FXII (raccoon) [12] = experiment: as above
[13] = target: red kangaroo FXII (red kangaroo); experiment: as above
tiger FXII (tiger) [14] = experiment: as above
beagle FXII (beagle) [15] = experiment: Western blot of platelet-poor plasma; primary antibody murine 5C12
cat FXII (cat) [16] = experiment: as above
chicken FXII (chicken) [17] = experiment: as above
dog FXII (dog) [18] = experiment: as above
elephant FXII (elephant) [19] = experiment: as above
horse FXII (horse) [20] = experiment: as above
llama FXII (llama) [21] = experiment: as above
marmoset FXII (marmoset) [22] = experiment: as above
raccoon FXII (raccoon) [23] = experiment: as above
[24] = target: red kangaroo FXII (red kangaroo); experiment: as above
tiger FXII (tiger) [25] = experiment: as above
baboon FXII (baboon) [26] = experiment: Western blot of platelet-poor plasma after SDS-PAGE; primary antibody murine 5C12, secondary goat anti-mouse polyclonal

B1: mouse monoclonal antibody 5C12 (antibody, mouse IgG1, kappa, V domains shown)
VH: DVQLQESGPDLVKPSQSLSLTCTVTGYSITSGYSWHWIRQFPGNNLEWMGYIQYSGNTNSNPSLKSRISITRDTSKNQFFLHLNSVTTEDTATYYCARWGSFDYWGQGTTLTVSS
VL: QIVLTQSPAIMSASPGEKVTMTCSASSSVNYMHWYQQKSGTSPKRWIYDTSKLASGVPARFSGSGSGTSYSLTISSMEAGDAATYYCQQWSGNPPTFGGGTILEIKR
notes: Purified from hybridoma; also called AB053; 5C12 MAb
binding [1]: binds
binding (baboon FXII (baboon) [2]): binds
binding (beagle FXII (beagle) [3]): no binding
binding (cat FXII (cat) [4]): no binding
binding (chicken FXII (chicken) [5]): no binding
binding (dog FXII (dog) [6]): no binding
binding (elephant FXII (elephant) [7]): no binding
binding [8]: no binding
binding (horse FXII (horse) [9]): no binding
binding (llama FXII (llama) [10]): no binding
binding (marmoset FXII (marmoset) [11]): no binding
binding (raccoon FXII (raccoon) [12]): no binding
binding [13]: no binding
binding (tiger FXII (tiger) [14]): no binding
binding (beagle FXII (beagle) [15]): no binding
binding (cat FXII (cat) [16]): no binding
binding (chicken FXII (chicken) [17]): no binding
binding (dog FXII (dog) [18]): no binding
binding (elephant FXII (elephant) [19]): no binding
binding (horse FXII (horse) [20]): no binding
binding (llama FXII (llama) [21]): no binding
binding (marmoset FXII (marmoset) [22]): no binding
binding (raccoon FXII (raccoon) [23]): no binding
binding [24]: no binding
binding (tiger FXII (tiger) [25]): no binding
binding (baboon FXII (baboon) [26]): binds
